Reference: PubChem BioAssay AID1259317 (Drosophila RNAi Screening Center, 2017)
In all, the deposit lists 418 reagents; below is an unselected part. In the full data, 34 (8.1%) were called active. 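Hits are two-sided: raised or lowered ATP both count; higher z-score means more ATP and more surviving cells.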 The numbers tell different reagents against one gene apart. Not given: the amount of reagent.

Purpose: 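Genes whose knockdown changes fly cell survival under toxic manganese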 (primary screen)
Cell system: Drosophila S2R+ cells
Reagents: long dsRNA against Drosophila genes
Duration: 5 days (4 days knockdown, then 1 day metal)
Challenge: manganese chloride added to 15 mM final for 1 day
Detection: 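Cellular ATP measured by luciferase luminescence after 4 days knockdown then 1 day of 15 mM manganese chloride; z-score averaged over three plates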
Reading the numbers: mean z-score, 3 replicates: higher = more ATP, more surviving cells under manganese
Rule for the call: 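Active calls require an absolute mean z-score greater than 1.5, in either direction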
Meaning of the calls: active = hit: z-score beyond ±1.5 (ATP up or down); inactive = not a hit

mean z-score, 3 replicates, by gene and reagent
ZnT63C (Zinc transporter 63C): #1 -0.287 inactive; #2 0.502 inactive; #3 0.509 inactive
Pmvk (Phosphomevalonate kinase): #1 -0.146 inactive; #2 -0.922 inactive
Acox57D-d (acyl-Coenzyme A oxidase at 57D distal): #1 -1.36 inactive; #2 0.229 inactive
Naglu (N-acetyl-alpha-glucosaminidase): #1 0.922 inactive; #2 -0.348 inactive
ScpX: #1 1.8 active
Muc11A (Mucin 11A): #1 0.695 inactive
Mpv17 (Mitochondrial inner membrane protein MPV17): #1 -0.473 inactive; #2 -0.434 inactive
CG1607: #1 0.357 inactive; #2 0.159 inactive
CG10194: #1 0.258 inactive
Vha100-5 (Vacuolar H[+] ATPase 100kD subunit 5): #1 0.62 inactive; #2 0.859 inactive; #3 1.77 active
CG5731: #1 -0.155 inactive; #2 0.249 inactive; #3 -1.17 inactive
Vps28 (Vacuolar protein sorting 28): #1 -1.01 inactive; #2 -0.596 inactive; #3 -1.32 inactive
Tsp39D (Tetraspanin 39D): #1 -0.24 inactive; #2 0.286 inactive
Npc1b (Niemann-Pick type C-1b): #1 -0.281 inactive; #2 -0.88 inactive; #3 -0.275 inactive
beta-Man (beta-Mannosidase): #1 1.45 inactive; #2 -1.35 inactive
ClC-a (Chloride channel-a): #1 -0.0533 inactive; #2 1.5 active; #3 -0.00716 inactive
Pex10 (Peroxin 10): #1 -0.549 inactive; #2 0.522 inactive
Cat (Catalase): #1 -0.61 inactive; #2 -0.396 inactive; #3 -0.524 inactive
CG12268: #1 -0.863 inactive; #2 0.236 inactive
VhaAC39-2 (Vacuolar H[+] ATPase AC39 subunit 2): #1 0.00403 inactive; #2 -0.384 inactive
Gga: #1 -1.25 inactive; #2 -0.318 inactive
PMP34 (Peroxisomal Membrane Protein 34): #1 -0.0424 inactive; #2 0.355 inactive
Mfe2 (peroxisomal Multifunctional enzyme type 2): #1 -0.723 inactive
fdl (fused lobes): #1 -0.191 inactive; #2 0.462 inactive
Hexo1 (Hexosaminidase 1): #1 -0.198 inactive
CG7300: #1 0.825 inactive; #2 0.28 inactive
CG7997: #1 -0.642 inactive; #2 -0.721 inactive
Vps36 (Vacuolar protein sorting 36): #1 -1.13 inactive; #2 -0.575 inactive
Pex1 (Peroxin 1): #1 -0.473 inactive
VhaPPA1-2 (Vacuolar H[+] ATPase PPA1 subunit 2): #1 0.584 inactive; #2 -0.459 inactive
CtsL1 (Cathepsin L1): #1 0.282 inactive; #2 -1.05 inactive; #3 -1.34 inactive
CG12672: #1 -0.456 inactive
mnd (minidiscs): #1 0.138 inactive; #2 -0.513 inactive
CG6508: #1 -0.696 inactive
Vha100-2 (Vacuolar H[+] ATPase 100kD subunit 2): #1 -0.853 inactive; #2 0.667 inactive
Mcad (Medium-chain acyl-CoA dehydrogenase): #1 0.569 inactive; #2 0.336 inactive
Vha36-2 (Vacuolar H[+] ATPase 36kD subunit 2): #1 -0.467 inactive; #2 0.309 inactive
Dhrs4 (Dehydrogenase/reductase 4): #1 -0.819 inactive

12 neighbouring reagents from above, for reference:
mean z-score, 3 replicates, by gene and reagent
Naglu (N-acetyl-alpha-glucosaminidase): #1 0.922 inactive; #2 -0.348 inactive
ScpX: #1 1.8 active
Muc11A (Mucin 11A): #1 0.695 inactive
Mpv17 (Mitochondrial inner membrane protein MPV17): #1 -0.473 inactive; #2 -0.434 inactive
CG1607: #1 0.357 inactive; #2 0.159 inactive
CG10194: #1 0.258 inactive
Vha100-5 (Vacuolar H[+] ATPase 100kD subunit 5): #1 0.62 inactive; #2 0.859 inactive; #3 1.77 active

The list goes on.
mean z-score, 3 replicates, by gene and reagent
Pex13 (Peroxin 13): #1 0.113 inactive; #2 -0.0472 inactive; #3 -0.0717 inactive
Idh (Isocitrate dehydrogenase): #1 -1.38 inactive; #2 -0.438 inactive; #3 -0.417 inactive
CG8646: #1 1.46 inactive
sbm (sobremesa): #1 -1.25 inactive; #2 -1.01 inactive
gb (genderblind): #1 0.624 inactive; #2 -0.0122 inactive
or (orange): #1 1.56 active; #2 1.25 inactive; #3 -0.538 inactive
CG1827: #1 -0.351 inactive
Ctns (Cystinosin): #1 2.06 active; #2 2.7 active; #3 0.722 inactive
CG15534: #1 -0.299 inactive; #2 -0.453 inactive
Ppt2 (Palmitoyl-protein Thioesterase 2): #1 0.791 inactive; #2 -0.259 inactive; #3 0.929 inactive
Vps45 (Vacuolar protein sorting 45): #1 -1.12 inactive; #2 -0.803 inactive; #3 -0.536 inactive
Vps35 (Vacuolar protein sorting 35): #1 1.02 inactive; #2 0.0556 inactive; #3 0.649 inactive
Pex12 (Peroxin 12): #1 -0.171 inactive; #2 -0.66 inactive
Amacr (Alpha-methylacyl-CoA racemase): #1 2.45 active
pic (piccolo): #1 0.145 inactive; #2 0.579 inactive; #3 0.0553 inactive
Vha55 (Vacuolar H[+]-ATPase 55kD subunit): #1 1.26 inactive; #2 -0.376 inactive; #3 2.11 active
Pex14 (Peroxin 14): #1 -0.614 inactive; #2 0.0406 inactive
CG17134: #1 2.72 active
Sod1 (Superoxide dismutase 1): #1 -0.434 inactive; #2 1.96 active; #3 -0.916 inactive
Mvl (Malvolio): #1 -0.763 inactive; #2 -0.201 inactive; #3 -0.113 inactive
Vps24 (Vacuolar protein sorting 24): #1 -0.695 inactive; #2 -0.0156 inactive; #3 1.27 inactive
betaGlu (beta glucuronidase): #1 -0.363 inactive; #2 0.194 inactive; #3 0.725 inactive
Vps33B (Vacuolar protein sorting 33B): #1 0.19 inactive; #2 0.404 inactive
ACC (Acetyl-CoA carboxylase): #1 -0.223 inactive; #2 0.988 inactive; #3 -0.104 inactive
Vha16-1 (Vacuolar H[+] ATPase 16kD subunit 1): #1 -0.146 inactive; #2 1.47 inactive; #3 -0.423 inactive
CG15117: #1 -0.128 inactive; #2 -0.264 inactive; #3 -1.32 inactive
Rpt6R (Regulatory particle triple-A ATPase 6-related): #1 0.148 inactive; #2 1.02 inactive
